Reference: paper PMC11804915, “Single-stranded DNA binding to the transcription factor PafBC triggers the mycobacterial DNA damage response”

Test system: PafBC, PafC WCX variant W250A,Y254A,Y255A (Mycobacterium smegmatis)
Test: EMSA
Conditions: ssDNA EMSA: 22.5 mM Hepes-KOH pH 7.8, 135 mM NaCl, 20 mM KCl, 5 mM MgCl2, 1 mM DTT, 37 C 15 min, 10 nM DNA, 0-16 uM PafBC; recombinant protein; protein details: C-terminal Strep on PafC; label: FAM; single-stranded DNA

TTTTTTTTTTTTTTTTTTTT [dT20 ssDNA]: binds more weakly.

For at least one entry, the source does not settle the construct or the ends of the probe. The comparison behind a weaker result is the experiment's own reference, which may not be listed here.
